Source: publication PMC8782983
No constants are given. Whether binding was seen depends on the method and setting. For part of these data: In cells and extracts the contact can be indirect. Some results given as binding are weak or reduced against the parent protein; the word gives no strength. For part of these data: Where a sequence is shown, tags or fusion partners need not be part of it. Each block holds one substance with its values, some of them ahead of it.

By UniProt entry, the sequences of proteins in these tests, tags left out.
UniProt Q9GZV4: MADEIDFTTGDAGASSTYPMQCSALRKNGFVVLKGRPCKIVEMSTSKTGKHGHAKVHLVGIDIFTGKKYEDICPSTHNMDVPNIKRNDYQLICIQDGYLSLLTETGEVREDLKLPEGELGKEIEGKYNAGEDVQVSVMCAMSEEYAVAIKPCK

What was measured:
[1] = molecular target: T1, HERC3, endogenous (human (endogenous in HCT116)) (UniProt Q15034); test: co-IP; endogenous proteins; lysates of HCT116 cells, co-IP with anti-HERC3 or anti-EIF5A2 and control IgG
T1 sequence: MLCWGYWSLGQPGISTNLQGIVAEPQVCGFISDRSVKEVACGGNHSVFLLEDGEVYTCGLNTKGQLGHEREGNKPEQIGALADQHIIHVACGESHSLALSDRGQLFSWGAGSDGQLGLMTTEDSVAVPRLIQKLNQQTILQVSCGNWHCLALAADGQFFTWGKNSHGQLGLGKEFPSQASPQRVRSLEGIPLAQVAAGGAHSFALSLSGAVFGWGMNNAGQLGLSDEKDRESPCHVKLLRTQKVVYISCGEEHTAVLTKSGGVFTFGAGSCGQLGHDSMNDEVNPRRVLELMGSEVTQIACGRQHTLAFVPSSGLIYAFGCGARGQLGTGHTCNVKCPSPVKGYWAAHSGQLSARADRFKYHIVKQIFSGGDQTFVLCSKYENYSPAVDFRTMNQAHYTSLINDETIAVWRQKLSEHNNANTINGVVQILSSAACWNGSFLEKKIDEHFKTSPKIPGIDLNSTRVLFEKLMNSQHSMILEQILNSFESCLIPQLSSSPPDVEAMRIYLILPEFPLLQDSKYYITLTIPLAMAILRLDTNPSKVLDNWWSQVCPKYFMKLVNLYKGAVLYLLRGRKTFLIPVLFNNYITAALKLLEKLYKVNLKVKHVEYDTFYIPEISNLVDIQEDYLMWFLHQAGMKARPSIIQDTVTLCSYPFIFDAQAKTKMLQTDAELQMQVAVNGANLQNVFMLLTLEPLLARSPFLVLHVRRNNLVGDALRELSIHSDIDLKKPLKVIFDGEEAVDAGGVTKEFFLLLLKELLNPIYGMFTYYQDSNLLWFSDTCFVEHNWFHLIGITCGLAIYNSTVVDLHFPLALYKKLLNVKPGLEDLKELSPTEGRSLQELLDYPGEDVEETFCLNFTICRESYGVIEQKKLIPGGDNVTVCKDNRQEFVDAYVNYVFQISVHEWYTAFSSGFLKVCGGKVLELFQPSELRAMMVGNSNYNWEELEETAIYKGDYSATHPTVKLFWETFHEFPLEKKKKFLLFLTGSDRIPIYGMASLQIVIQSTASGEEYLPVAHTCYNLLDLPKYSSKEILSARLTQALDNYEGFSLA

[2] = molecular target: T2, HERC3-Myc, wild type (UniProt Q15034); test: co-IP; HCT116 cells transfected with the indicated plasmids; co-IP buffer (50 mM Tris-HCl, 5 mM EDTA, 150 mM NaCl, 1% NP-40, pH 7.6); antibodies and Protein G agarose beads or affinity gels, 4 °C overnight, with or without RNase (50 μg/ml)
T2 sequence: T1 sequence

[3] = molecular target: T3, GST-HERC3 (UniProt Q15034); test: pull-down; GST pull-down; purified recombinant proteins (20 μg) with glutathione sepharose 4B in 500 μl pulldown buffer (20 mM Tris-Cl, 5 mM MgCl2, 100 mM NaCl, 1 mM DTT, 1 mM EDTA, 0.5% NP-40, 10 μg/ml BSA, pH 7.5); five washes, western blotting; both purified
T3 sequence: T1 sequence

binding [1]: binds
Substance: EIF5A2, endogenous (from UniProt Q9GZV4 1-153)

binding [2]: binds
Substance: EIF5A2-Flag (from UniProt Q9GZV4 1-153)

binding [3]: binds
Substance: His-tagged EIF5A2, recombinant (from UniProt Q9GZV4 1-153)
